{"source": "patent US11426444B2", "about": "“Compositions, methods and uses for treating post-traumatic stress disorder” (priority 2017, dated 2022)", "test_system": "C57Bl/6J mice", "experiment": "Open field motor activity (OF) after CSD (Example 4)", "type": "in vivo, mouse", "settings": "15 min open field", "method": "The mouse chronic social defeat (“CSD”) model has been accepted as a model of PTSD [Flandreau, et al, 2018]. This model involves exposure of C57Bl/6J mice to chronic stress by aggressor mice (male CD-1 ex-breeders) for a defined period of 15 days. Starting from day 15, mice were further tested in the open field (OF) model.\nBehavioral tests such as Open field motor activity (OF) were also conducted. See the schematic of FIG. 7.\nIn this model set up the test was conducted 15 days after the last CSD session. The mouse was placed on the Open Field apparatus floor in the center of empty arena for 15 min without exposure to any other stimuli. The following parameters were calculated from the data: distance moved, number of vertical rearing's, velocity and % resting time (no movement activity). Open field activity chambers (Med Associates Inc, St Albans, Vt.; 27×27×20.3 cm) are equipped with IR beams with red light conditions. A mouse is considered to have no movement activity when the mouse is not breaking two adjacent beams consecutively (distance between two adjacent beams is about 1.7 cm).", "data": [{"substance": "Teneurin C-Terminal Associated Peptide-1 (QQLLGTGRVQGYDGYFVLSVEQYLELSDSANNIHFMRQSEI; C-terminal amide; Mouse TCAP1 (41 a.a.)) [TCAP-1]", "values": [{"measurement": "distance moved (locomotor activity, LMA)", "result": "all groups moved similar distances"}, {"measurement": "velocity (locomotor activity)", "setting": "FIG. 11", "result": "do not have impaired locomotor activity"}]}]}
